From US20240218022A1, “ANTI-VISTA MACROCYCLIC PEPTIDES AND COMPOSITIONS” (BRISTOL-MYERS SQUIBB COMPANY, priority 2022, published 2024)
Read-outs that look alike come from different tables or passages of the source. For at least one compound, name, drawing or mass did not settle the structure. Starred links: 1 amine or outer side, 2 acyl side, 3 side chain; linkers in the order of their positions; H or OH if unused. Positions of bridges follow the written chain, without caps; N, C: chain ends. Non-standard residues stand in square brackets, D forms with d. Residues, ends and D or L forms follow the SMILES beside them. Phe(2,4-F2) = N[C@@H](Cc1ccc(F)cc1F)C(=O)O; Phe(3-Me) = Cc1cccc(C[C@H](N)C(=O)O)c1; 2Nal = N[C@@H](Cc1ccc2ccccc2c1)C(=O)O; βAsp = O=C(O)[C@H](CC(=O)[*:2])N[*:1]; Cit = NC(=O)NCCC[C@H](N)C(=O)O; Ahp(2) = CCCCC[C@H](N)C(=O)O; NMeNle = CCCC[C@H](NC)C(=O)O; Tle = CC(C)(C)[C@H](N)C(=O)O; NMeS = CN[C@@H](CO)C(=O)O; NHexGly = CCCCCCNCC(=O)O; Nle = CCCC[C@H](N)C(=O)O; Orn = NCCC[C@H](N)C(=O)O; Pra = C#CC[C@H](N)C(=O)O; Aun = NCCCCCCCCCCC(=O)O; Dap = NC[C@H](N)C(=O)O; AEEA = NCCOCCOCC(=O)O; Sar = CNCC(=O)O

Biological target: T1, mouse VISTA (mVISTA) (Mus musculus, UniProt Q9D659)
T1 construct: expressed in transfected cells; host or cells: Human embryonic kidney 293T cells
T1 sequence (Q9D659 33-308): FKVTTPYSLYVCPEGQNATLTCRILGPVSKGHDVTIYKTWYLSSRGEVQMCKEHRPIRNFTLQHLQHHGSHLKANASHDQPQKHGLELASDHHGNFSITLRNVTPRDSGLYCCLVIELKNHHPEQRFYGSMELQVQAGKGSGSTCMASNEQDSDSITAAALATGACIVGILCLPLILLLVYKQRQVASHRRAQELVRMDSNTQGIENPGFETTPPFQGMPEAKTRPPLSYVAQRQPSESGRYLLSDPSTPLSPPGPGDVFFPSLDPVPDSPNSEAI
Test: Cell-Based Binding High-Content Assay For mVISTA (HC CBA mVISTA)
In short: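 This high-content binding assay uses HEK293T cells expressing murine VISTA, measuring displacement of 2 nM biotinylated peptide by fluorescent streptavidin imaging. IC50 values come from four-parameter logistic fitting.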

[1] = cell-based binding high-content assay, read-out: HC CBA miPrISTA IC50
[2] = cell-based binding high-content assay, mVISTA, the 15th table, read-out: HC CBA mVISTA IC50
[3] = the 20th table, scaffold drawing 23, read-out: HC CBA mVISTA IC50

`CCCCCCN1CC(=O)N[C@@H](Cc2ccc(O)cc2)C(=O)N[C@@H](CCCC)C(=O)N[C@@H](CC(N)=O)C(=O)N[C@@H](CCCNC(=N)N)C(=O)N(C)[C@@H](CCCC)C(=O)N[C@@H](CCCCC)C(=O)N2CCC[C@H]2C(=O)N[C@@H](C(C)C)C(=O)N[C@@H](CC(=O)O)C(=O)N[C@H](C(=O)N[C@@H](CC(=O)NCCOCCOCC(=O)NCCCCCCCCCCC(=O)O)C(=O)O)CSCC(=O)N[C@@H](Cc2ccc3ccccc3c2)C(=O)N[C@@H](Cc2ccc(O)cc2)C(=O)N[C@@H](CC(=O)O)C1=O` [Example 2151] ({CH2CO}-[2Nal]YD[NHexGly]Y[Nle]NR[NMeNle][Ahp(2)]PVDC[βAsp][AEEA][Aun]-OH; thioether N-14) was tested, and the IC50 (read-out: HC CBA mVISTA IC50) was 10.8 nM.
With `CCCCCCN1CC(=O)N[C@@H](Cc2ccc(O)cc2)C(=O)N[C@@H](CC(C)C)C(=O)N[C@@H](CC(N)=O)C(=O)N[C@@H](CCCNC(=N)N)C(=O)N[C@@H](CC(C)C)C(=O)N[C@@H](CCCCC)C(=O)N2CCC[C@H]2C(=O)N[C@@H](C(C)C)C(=O)N[C@@H](C(C)C)C(=O)N[C@H](C(=O)NCCOCCOCC(=O)N[C@@H](CC(=O)NCCOCCOCC(=O)NCCCCCCCCCCC(=O)O)C(=O)O)CSCC(=O)N[C@@H](Cc2ccccc2)C(=O)N[C@@H](Cc2cccc(C)c2)C(=O)N[C@@H](CC(=O)O)C1=O` [Example 2207] ({CH2CO}-F[Phe(3-Me)]D[NHexGly]YLNRL[Ahp(2)]PVVC[AEEA][βAsp][AEEA][Aun]-OH; thioether N-14) the IC50 (read-out: HC CBA mVISTA IC50) was 50.7 nM.
`CCCCCCN1CC(=O)N[C@@H](Cc2ccc(O)cc2)C(=O)N[C@@H](CC(C)C)C(=O)N[C@@H](CC(N)=O)C(=O)N[C@@H](CCCNC(=N)N)C(=O)N[C@@H](CC(C)C)C(=O)N[C@@H](CCCCC)C(=O)N2CCC[C@H]2C(=O)N[C@@H](C(C)C)C(=O)N[C@@H](C(C)C)C(=O)N[C@H](C(=O)NCCOCCOCC(=O)N[C@@H](CCC(=O)O)C(=O)NCCOCCOCC(=O)NCCCCCCCCCCC(=O)O)CSCC(=O)N[C@@H](Cc2ccccc2)C(=O)N[C@@H](Cc2cccc(C)c2)C(=O)N[C@@H](CC(=O)O)C1=O` [compound 2304] ({CH2CO}-F[Phe(3-Me)]D[NHexGly]YLNRL[Ahp(2)]PVVC[AEEA]E[AEEA][Aun]-OH; thioether N-14) showed an IC50 [1] of 26.2 nM.
Molecule `C#CC[C@H](NC(=O)[C@@H]1CSCC(=O)N[C@@H](Cc2ccc3ccccc3c2)C(=O)N[C@@H](Cc2c[nH]c3ccccc23)C(=O)N[C@@H](CC(=O)O)C(=O)N(CCCCCC)CC(=O)N[C@@H](Cc2ccc(O)cc2)C(=O)N[C@@H](CCCC)C(=O)N[C@@H](CC(N)=O)C(=O)N[C@@H](CCCNC(=N)N)C(=O)N[C@@H](CC(C)C)C(=O)N[C@@H](CCCCC)C(=O)N2CCC[C@H]2C(=O)N[C@@H](C(C)C)C(=O)N[C@@H](CC(=O)O)C(=O)N1)C(=O)O` [compound 1234] ({CH2CO}-[2Nal]WD[NHexGly]Y[Nle]NRL[Ahp(2)]PVDC[Pra]-OH; thioether N-14) has an IC50 [2] of 43 nM.
`CCCCCCN1CC(=O)N[C@@H](Cc2ccc(O)cc2)C(=O)N[C@@H](CCCC)C(=O)N[C@@H](CC(N)=O)C(=O)N[C@@H](CCCNC(=N)N)C(=O)N[C@@H](CC(C)C)C(=O)N[C@@H](CCCCC)C(=O)N2CCC[C@H]2C(=O)N[C@@H](C(C)C)C(=O)N(C)CC(=O)N[C@H](C(=O)NCC(=O)O)CSCC(=O)N[C@@H](Cc2ccccc2)C(=O)N[C@@H](Cc2c[nH]c3ccccc23)C(=O)N[C@@H](CC(=O)O)C1=O` [Example 1362] ({CH2CO}-FWD[NHexGly]Y[Nle]NRL[Ahp(2)]PV[Sar]CG-OH; thioether N-14) showed an IC50 (read-out: HC CBA mVISTA IC50) of 37.9 nM.
Work on `CCCCCCN1CC(=O)N[C@@H](Cc2ccc(O)cc2)C(=O)N[C@@H](CC(C)C)C(=O)N[C@@H](CC(=O)O)C(=O)N[C@@H](CCCN)C(=O)N(C)[C@@H](CO)C(=O)N[C@@H](CCCCC)C(=O)N2CCC[C@H]2C(=O)N[C@@H](C(C)(C)C)C(=O)N[C@@H](CC(N)=O)C(=O)N[C@H](C(=O)N[C@@H](CC(=O)NCCOCCOCC(=O)N[C@@H](CC(=O)O)C(=O)NCCOCCOCC(=O)NCCCCCCCCCCC(=O)O)C(=O)O)CSCC(=O)N[C@@H](Cc2ccccc2)C(=O)N[C@@H](Cc2c[nH]c3ccccc23)C(=O)N[C@@H](CC(=O)O)C1=O` [compound 2067] ({CH2CO}-FWD[NHexGly]YLD[Orn][NMeS][Ahp(2)]P[Tle]NC[βAsp][AEEA]D[AEEA][Aun]-OH; thioether N-14) yielded an IC50 (cell-based binding high-content assay, mVISTA, read-out: HC CBA miPr ISTA IC50) of 40.3 nM.
For `CCCCCCN1CC(=O)N[C@@H](Cc2ccc(O)cc2)C(=O)N[C@@H](CCCCC)C(=O)N[C@@H](CC(N)=O)C(=O)N[C@@H](CCCNC(=N)N)C(=O)N(C)[C@@H](CCCC)C(=O)N[C@@H](CCCCC)C(=O)N2CCC[C@H]2C(=O)N[C@@H](C(C)C)C(=O)N[C@@H](CC(=O)O)C(=O)N[C@H](C(=O)N[C@@H](CO)C(=O)O)CSCC(=O)N[C@@H](Cc2ccccc2)C(=O)N[C@@H](Cc2ccc(F)cc2F)C(=O)N[C@@H](CC(=O)O)C1=O` [compound 1351] ({CH2CO}-F[Phe(2,4-F2)]D[NHexGly]Y[Ahp(2)]NR[NMeNle][Ahp(2)]PVDCS-OH; thioether N-14), the IC50 (read-out: HC CBA mVISTA IC50) was 14.7 nM.
Molecule `CCCCCCN1CC(=O)N[C@@H](Cc2ccc(O)cc2)C(=O)N[C@@H](CC(C)C)C(=O)NCC(=O)N[C@@H](CCCNC(=N)N)C(=O)N[C@@H](CC(C)C)C(=O)N[C@@H](CCCCC)C(=O)N2CCC[C@H]2C(=O)N[C@@H](C(C)C)C(=O)N[C@@H](CCCNC(=N)N)C(=O)N[C@H](C(=O)NCC(N)=O)CSCC(=O)N[C@@H](Cc2ccc3ccccc3c2)C(=O)N[C@@H](Cc2c[nH]c3ccccc23)C(=O)N[C@@H](CC(=O)O)C1=O` [compound 1231] ({CH2CO}-[2Nal]WD[NHexGly]YLGRL[Ahp(2)]PVRCG-NH2; thioether N-14) has an IC50 [2] of 9.6 nM.
Molecule `CCCCCCN1CC(=O)N[C@@H](Cc2ccc(O)cc2)C(=O)N[C@@H](CC(C)C)C(=O)N[C@@H](CC(N)=O)C(=O)N[C@@H](CCCNC(=N)N)C(=O)N(C)[C@@H](CCCC)C(=O)N[C@@H](CCCCC)C(=O)N2CCC[C@H]2C(=O)N[C@@H](C(C)(C)C)C(=O)N[C@@H](CC(=O)O)C(=O)N[C@H](C(=O)N[C@@H](CN)C(=O)NCCOCCOCC(=O)N[C@@H](CC(=O)O)C(=O)NCCOCCOCC(=O)NCCCCCCCCCCC(=O)O)CSCC(=O)N[C@@H](Cc2ccccc2)C(=O)N[C@@H](Cc2ccc(O)cc2)C(=O)N[C@@H](CC(=O)O)C1=O` [compound 2083] ({CH2CO}-FYD[NHexGly]YLNR[NMeNle][Ahp(2)]P[Tle]DC[Dap][AEEA]D[AEEA][Aun]-OH; thioether N-14) has an IC50 (cell-based binding high-content assay, mVISTA, read-out: HC CBA miPrISTA IC50) of 43.7 nM.
For `CCCCCCN1CC(=O)N[C@@H](Cc2ccc(O)cc2)C(=O)N[C@@H](CC(C)C)C(=O)N[C@H](CC(N)=O)C(=O)N[C@@H](CCCNC(=N)N)C(=O)N[C@@H](CC(C)C)C(=O)N[C@@H](CCCCC)C(=O)N2CCC[C@H]2C(=O)N[C@@H](C(C)C)C(=O)N[C@@H](C(C)C)C(=O)N[C@H](C(=O)NCC(=O)O)CSCC(=O)N[C@@H](Cc2ccc(F)cc2F)C(=O)N[C@@H](Cc2ccc(O)cc2)C(=O)N[C@@H](CC(=O)O)C1=O` [compound 1468] ({CH2CO}-[Phe(2,4-F2)]YD[NHexGly]YL[dN]RL[Ahp(2)]PVVCG-OH; thioether N-14), the IC50 [3] was 4.6 nM.
Molecule `CCCCCCN1CC(=O)N[C@@H](Cc2ccc(O)cc2)C(=O)N[C@@H](CCCC)C(=O)N[C@H](CC(N)=O)C(=O)N[C@@H](CCCNC(=N)N)C(=O)N[C@@H](CC(C)C)C(=O)N[C@@H](CCCCC)C(=O)N2CCC[C@H]2C(=O)N[C@@H](C(C)C)C(=O)N[C@@H](CC(=O)O)C(=O)N[C@H](C(=O)NCC(=O)O)CSCC(=O)N[C@@H](Cc2ccc(F)cc2F)C(=O)N[C@@H](Cc2ccc(O)cc2)C(=O)N[C@@H](CC(=O)O)C1=O` [compound 1469] ({CH2CO}-[Phe(2,4-F2)]YD[NHexGly]Y[Nle][dN]RL[Ahp(2)]PVDCG-OH; thioether N-14) has an IC50 [3] of 18.4 nM.
`CCCCCCN1CC(=O)N[C@@H](Cc2ccc(O)cc2)C(=O)N[C@@H](CC(C)C)C(=O)N[C@@H](CC(N)=O)C(=O)N[C@@H](CCCNC(=N)N)C(=O)N[C@@H](CC(C)C)C(=O)N[C@@H](CCCCC)C(=O)N2CCC[C@H]2C(=O)N[C@@H](C(C)C)C(=O)N(C)CC(=O)N[C@H](C(=O)NCC(=O)O)CSCC(=O)N[C@@H](Cc2ccccc2)C(=O)N[C@@H](Cc2ccc(O)cc2)C(=O)N[C@@H](CC(=O)O)C1=O` [compound 1115] ({CH2CO}-FYD[NHexGly]YLNRL[Ahp(2)]PV[Sar]CG-OH; thioether N-14) showed an IC50 (read-out: HC CBA mVISTA IC50) of 6.9 nM.
`CCCCCCN1CC(=O)N[C@@H](Cc2ccc(O)cc2)C(=O)N[C@@H](CC(C)C)C(=O)N[C@@H](CC(N)=O)C(=O)N[C@@H](CCCNC(N)=O)C(=O)N[C@@H](CC(C)C)C(=O)N[C@@H](CCCCC)C(=O)N2CCC[C@H]2C(=O)N[C@@H](C(C)C)C(=O)N[C@@H](C(C)C)C(=O)N[C@H](C(=O)NCCOCCOCC(=O)N[C@@H](CC(=O)O)C(=O)NCCOCCOCC(=O)NCCCCCCCCCCC(=O)O)CSCC(=O)N[C@@H](Cc2ccccc2)C(=O)N[C@@H](Cc2cccc(C)c2)C(=O)N[C@@H](CC(=O)O)C1=O` [compound 2306] ({CH2CO}-F[Phe(3-Me)]D[NHexGly]YLN[Cit]L[Ahp(2)]PVVC[AEEA]D[AEEA][Aun]-OH; thioether N-14) showed an IC50 [1] of 26.5 nM.
